Source: patent US20250222100A1, “COMPLETE TOLEROGENIC ADJUVANT AND METHODS OF USING THE SAME” (THE BOARD OF TRUSTEES OF THE UNIVERSITY OF ILLINOIS, priority 2024, published 2025)
For at least one compound, name, drawing or mass did not settle the structure.

Tests used:
[1] = test system: monocyte-derived macrophages in DLN, NLN and spleen; test: Systemic MMφ influx into draining and non-draining lymph nodes (R848, 8206); format: in vivo, C56BL/6 mice; conditions: footpad, 24 hours
Method: FIGS. 9A-9B show the effect of R848 on draining lymph node (DLN) versus non-draining lymph node (NLN). (FIG. 9A) C56BL/6 mice (10-week-old) were injected at the right-footpad with 20 μl of PBS containing DMSO (control), 3 μg of MPLA, or an equal molar amount (0.6 μg) of R848. At 24 hours, monocyte-derived macrophages (MM) in both the DLN and the NLN were counted by flow cytometry. Data are mean±SD of four experiments (on a log scale). * p≤0.001 (one-way ANOVA). (FIG. 9B) Dose-response analysis of R848. C56BL/6 mice (10-week-old) were injected subcutaneously at the back flank with 50 μl of PBS containing 8 μg of dexamethasone, 20 μg of rapamycin, and an indicated dose of R848. At 24 h, MMφ in popliteal lymph nodes were counted. Shown is a nonlinearly fitted substrate inhibition curve for mean±SD of 4-8 LNs. * p≤0.01 (one-way ANOVA).
C56BL/6 mice (10-week-old) were injected subcutaneously at the back flank with 8206 or PBS. At 24 hours, MMO in popliteal (PLN), axillary (ALN), mesenteric (MLN), and caudal mediastinal (CLN) lymph nodes and the spleen (SP) were counted. Data are mean±SD of four experiments (on a log scale). *p≤0.01 (t-test).
Preparation and Injection of Composition 8206. Composition 8206 was prepared in the same steps as described for 8203 (Example 1), except that R848 was used in place of MPLA. It was injected subcutaneously at the back flank in 50 μl of PBS. […]

[2] = test system: MMφs, DCs, Treg cells and Teff cells in draining lymph node; test: Adjuvant-induced potentiation in lymphoid organs after footpad injection; format: in vivo, mouse; conditions: for Teff cell influx to DLN: rapamycin co-injected with MPLA (or within 8203), footpad
Method: Footpad Injection. “A footpad” means the footpad of the right hind leg. Adjuvant components, antigens, or their combinations were injected subcutaneously (s.c.) between the 3rd and 4th toes in a volume of ˜20 μl in phosphate-buffered saline (PBS) with a BD insulin syringe.
Dose-Response Analysis. For dose-response analysis of MPLA, the reagent was serially diluted in DMSO; 5 μl of the diluted reagent were mixed with 100 μl of PBS and the resulting mixture was injected at 20 μl/footpad. For dose 0, 5 μl of DMSO were mixed with 100 μl of PBS and the resulting mixture was injected. Dose-response analysis of rapamycin was performed similarly, except that PBS containing 3 μg of MPLA was used in place of PBS.
Analysis of Adjuvant-Induced Potentiation in Lymphoid Organs. A cell suspension was prepared from the draining lymph node (“DLN,” popliteal), non-draining lymph nodes (“NLNs,” contralateral brachial and axillary nodes), or the spleen, as described above. For counting MMos and dendritic cells (“DCs”), a portion of the cell suspension was stained with biotin anti-CD3, biotin anti-CD19, PE/Cy7 APC anti-CD40, and PE streptavidin in the presence of mIgG as a blocker. Cells were analyzed by flow cytometry. PE+ cells were gated out. The total counts of MMos (CD11^loCD40^lo) (Zheng et al. (2013) Eur. J. Immunol. 43:219-227) and DCs (all the CD11+CD40^+ cells after excluding the CD11^loCD40^lo cells) (Zheng et al. (2013) Eur. J. Immunol. 43:219-227) in the cell suspension were determined by the method of Schlenke et al. ((1998) Cytometry 33:310-317). The MMφ count in percent was calculated as % of the total MMO and DC counts combined.
For counting Treg and Teff cells, a portion of the cell suspension was stained with PE/Cy7 anti-CD3 and APC anti-CD4 and analyzed by flow cytometry. total The counts of Treg (CD3+CD4+Foxp3-eGFP+) and Teff (CD3+CD4+Foxp3-eGFP-) cells in the suspension were determined by the method of Schlenke et al. ((1998) Cytometry 33:310-317). The Treg count in percent was calculated as % of the total Treg and Teff counts combined.
Preparation of 8203. Composition 8203 was prepared in the amount of ten doses as follows: 27 μl of dexamethasone sodium phosphate (3 μg dexamethasone/μl) were added to 165 μl of PBS in a microtube. Next, 3 μl of rapamycin (60 μg/μl in DMSO) were added, and the tube was vortexed at the top speed for 13 seconds, which produced a cloudy solution. Lastly, 5 μl of MPLA (6 μg/μl in DMSO) were added and mixed. The final solution remained cloudy and was used at 20 μl/dose.

[3] = test system: KJ1-26+ Treg and Teff cells; test: Mouse model testing tolerogenic adjuvants (the model): KJ1-26+ T cell counts and proliferation; format: in vivo, BALB/c Foxp3-eGFP mice; conditions: OVA with indicated components once every 3 days
Method: Mouse Model Testing Tolerogenic Adjuvants (“the Model”). The model was generated as follows: On day 0, whole blood was collected with heparin as the anticoagulant from a DO11.10 Foxp3-eGFP mouse. The blood was diluted 1:50 in PBS and transfused intravenously (i.v.) into sex-matched syngeneic BALB/c Foxp3-eGFP mice at ˜100 μl (containing ˜4,000 CD4+KJ1-26^+ cells) per mouse. On day 1, the recipients were injected at a footpad with 100 μg of OVA in 20 μl of PBS (see “Footpad Injection”) and let rest. On day 5, they were used as the model.
Determination of CD4^+ T cell Counts in the Model. A cell suspension was prepared from the DLN, NLNs, or the spleen as described herein. For counting CD4^+ T cells in the DLN, a portion of the DLN cell suspension was stained with PE/Cy7 anti-CD3 and APC anti-CD4 and analyzed by flow cytometry. The total CD4^+ T cell count (CD3+CD4+) in the suspension was determined by the method of Schlenke et al. ((1998) Cytometry 33:310-317). […] Cells were analyzed by flow cytometry. The total counts in the suspension for KJ1-26^+ Treg, KJ1-26^+ Teff, host Treg, and host Teff cells were calculated as portions of the total CD4^+ T cell count. The count in percent for Treg cells (“% Treg”) was calculated as % of the total Treg and Teff counts combined. […]

With CCOCc1nc2c(N)nc3ccccc3c2n1CC(C)(C)O [R848, resiquimod] the “attraction of MMφs to DLNs” value [1] was “attracted MMos to the DLNs” and the “attraction of MMφs to non-draining lymph nodes” value [1] was “could attract MMos to non-draining lymph nodes (NLNs) as well”.

For C[C@@H]1C[C@H]2[C@@H]3CCC4=CC(=O)C=C[C@]4(C)[C@@]3(F)[C@@H](O)C[C@]2(C)[C@@]1(O)C(=O)CO [dexamethasone, 9x-fluoro-16x-methylprednisolone], the “abundance and absolute number of MMφs in the DLN” value ([2]; single footpad injection, BALB/c, one day) was “did not increase the absolute number of MMos or Treg cells in the DLN”.

CO[C@H]1C[C@@H]2CC[C@@H](C)[C@@](O)(O2)C(=O)C(=O)N2CCCC[C@H]2C(=O)O[C@H]([C@H](C)C[C@@H]2CC[C@@H](O)[C@H](OC)C2)CC(=O)[C@H](C)/C=C(\C)[C@@H](O)[C@@H](OC)C(=O)[C@H](C)C[C@H](C)/C=C/C=C/C=C/1C [rapamycin, (7E, 15E, 17E, 19E)-9, 10, 12, 13, 14, 21, 22, 23, 24, 25, 26, 27, 32, 33, 34aS-Hexadecahydro-9R, 27-dihydroxy-3S-[(1R)-2-[(1S, 3R, 4R)-4-hydroxy-3-methoxycyclohexyl]-1-methylethyl]-10R,] was tested, and the “Teff cell influx to DLN” value [2] was “the Teff cell influx was blocked”, the “Teff cell influx to DLN” value ([2]; listed as Rapa) was “blocks” and the “Teff cell influx to DLN” value ([2]; listed as Rapamycin) was “block the influx of Teff cells”. The “role of component in prolonging Treg cell expansion / shortening Teff cell expansion in DLN” value [3] was “both necessary and sufficient for prolonging the Treg cell expansion”.
